In the supplement of paper PMC10849652:
Some of the results follow.

Protein sequences, listed by entry. Tags and fused reporters are not part of them. Lines headed by an entry give the natural chain unless they say otherwise; changes in a name come on top.
UniProt Q66K74: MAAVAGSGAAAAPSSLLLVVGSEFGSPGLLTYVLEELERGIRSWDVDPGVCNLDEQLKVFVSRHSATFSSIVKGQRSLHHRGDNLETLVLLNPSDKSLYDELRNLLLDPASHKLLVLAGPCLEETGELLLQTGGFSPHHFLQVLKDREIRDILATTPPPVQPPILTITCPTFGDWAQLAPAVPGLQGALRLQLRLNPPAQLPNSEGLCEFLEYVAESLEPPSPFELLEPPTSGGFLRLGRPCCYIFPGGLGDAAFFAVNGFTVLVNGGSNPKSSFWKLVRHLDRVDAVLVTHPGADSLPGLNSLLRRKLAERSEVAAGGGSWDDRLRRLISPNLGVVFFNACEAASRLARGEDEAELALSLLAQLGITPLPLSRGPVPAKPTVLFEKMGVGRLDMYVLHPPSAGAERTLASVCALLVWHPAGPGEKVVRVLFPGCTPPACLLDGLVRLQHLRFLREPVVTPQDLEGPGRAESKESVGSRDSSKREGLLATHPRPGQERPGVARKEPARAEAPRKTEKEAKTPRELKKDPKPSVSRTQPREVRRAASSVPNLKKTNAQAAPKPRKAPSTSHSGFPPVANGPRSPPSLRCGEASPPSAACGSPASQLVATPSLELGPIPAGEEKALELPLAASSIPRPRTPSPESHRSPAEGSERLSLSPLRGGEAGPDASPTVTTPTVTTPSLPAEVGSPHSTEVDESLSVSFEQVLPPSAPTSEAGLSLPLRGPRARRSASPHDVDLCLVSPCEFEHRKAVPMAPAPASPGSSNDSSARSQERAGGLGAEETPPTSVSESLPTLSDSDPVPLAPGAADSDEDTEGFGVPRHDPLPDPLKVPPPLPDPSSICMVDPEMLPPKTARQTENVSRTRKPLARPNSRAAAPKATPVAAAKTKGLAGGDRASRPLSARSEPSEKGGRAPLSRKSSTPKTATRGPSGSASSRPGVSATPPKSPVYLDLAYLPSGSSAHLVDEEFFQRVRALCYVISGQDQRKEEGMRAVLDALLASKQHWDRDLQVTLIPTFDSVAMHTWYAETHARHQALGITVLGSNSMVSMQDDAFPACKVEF
UniProt Q5U5X0: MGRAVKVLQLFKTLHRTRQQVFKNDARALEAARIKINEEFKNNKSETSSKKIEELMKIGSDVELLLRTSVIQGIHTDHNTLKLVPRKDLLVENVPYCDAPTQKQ
UniProt Q8IWC1: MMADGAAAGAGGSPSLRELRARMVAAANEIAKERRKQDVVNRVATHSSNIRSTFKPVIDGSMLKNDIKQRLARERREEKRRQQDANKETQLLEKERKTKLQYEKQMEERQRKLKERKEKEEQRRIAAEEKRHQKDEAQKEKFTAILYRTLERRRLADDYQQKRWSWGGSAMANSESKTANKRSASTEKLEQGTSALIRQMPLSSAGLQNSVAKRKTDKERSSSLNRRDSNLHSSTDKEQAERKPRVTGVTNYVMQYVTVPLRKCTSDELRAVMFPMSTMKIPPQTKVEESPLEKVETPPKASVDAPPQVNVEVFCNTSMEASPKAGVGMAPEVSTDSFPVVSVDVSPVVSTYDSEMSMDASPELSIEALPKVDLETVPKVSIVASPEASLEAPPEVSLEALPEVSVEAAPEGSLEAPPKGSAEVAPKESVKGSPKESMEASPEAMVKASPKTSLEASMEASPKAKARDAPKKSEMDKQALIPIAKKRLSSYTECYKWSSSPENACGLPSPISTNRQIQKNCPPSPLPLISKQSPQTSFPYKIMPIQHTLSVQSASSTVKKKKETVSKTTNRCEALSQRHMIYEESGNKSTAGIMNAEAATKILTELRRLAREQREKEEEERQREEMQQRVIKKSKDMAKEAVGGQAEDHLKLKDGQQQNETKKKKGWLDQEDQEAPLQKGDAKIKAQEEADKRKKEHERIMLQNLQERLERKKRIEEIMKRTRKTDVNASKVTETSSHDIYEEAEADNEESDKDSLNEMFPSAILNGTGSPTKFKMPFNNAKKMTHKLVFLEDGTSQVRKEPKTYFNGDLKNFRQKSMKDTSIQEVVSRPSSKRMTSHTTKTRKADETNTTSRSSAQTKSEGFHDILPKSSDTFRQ
UniProt P27816: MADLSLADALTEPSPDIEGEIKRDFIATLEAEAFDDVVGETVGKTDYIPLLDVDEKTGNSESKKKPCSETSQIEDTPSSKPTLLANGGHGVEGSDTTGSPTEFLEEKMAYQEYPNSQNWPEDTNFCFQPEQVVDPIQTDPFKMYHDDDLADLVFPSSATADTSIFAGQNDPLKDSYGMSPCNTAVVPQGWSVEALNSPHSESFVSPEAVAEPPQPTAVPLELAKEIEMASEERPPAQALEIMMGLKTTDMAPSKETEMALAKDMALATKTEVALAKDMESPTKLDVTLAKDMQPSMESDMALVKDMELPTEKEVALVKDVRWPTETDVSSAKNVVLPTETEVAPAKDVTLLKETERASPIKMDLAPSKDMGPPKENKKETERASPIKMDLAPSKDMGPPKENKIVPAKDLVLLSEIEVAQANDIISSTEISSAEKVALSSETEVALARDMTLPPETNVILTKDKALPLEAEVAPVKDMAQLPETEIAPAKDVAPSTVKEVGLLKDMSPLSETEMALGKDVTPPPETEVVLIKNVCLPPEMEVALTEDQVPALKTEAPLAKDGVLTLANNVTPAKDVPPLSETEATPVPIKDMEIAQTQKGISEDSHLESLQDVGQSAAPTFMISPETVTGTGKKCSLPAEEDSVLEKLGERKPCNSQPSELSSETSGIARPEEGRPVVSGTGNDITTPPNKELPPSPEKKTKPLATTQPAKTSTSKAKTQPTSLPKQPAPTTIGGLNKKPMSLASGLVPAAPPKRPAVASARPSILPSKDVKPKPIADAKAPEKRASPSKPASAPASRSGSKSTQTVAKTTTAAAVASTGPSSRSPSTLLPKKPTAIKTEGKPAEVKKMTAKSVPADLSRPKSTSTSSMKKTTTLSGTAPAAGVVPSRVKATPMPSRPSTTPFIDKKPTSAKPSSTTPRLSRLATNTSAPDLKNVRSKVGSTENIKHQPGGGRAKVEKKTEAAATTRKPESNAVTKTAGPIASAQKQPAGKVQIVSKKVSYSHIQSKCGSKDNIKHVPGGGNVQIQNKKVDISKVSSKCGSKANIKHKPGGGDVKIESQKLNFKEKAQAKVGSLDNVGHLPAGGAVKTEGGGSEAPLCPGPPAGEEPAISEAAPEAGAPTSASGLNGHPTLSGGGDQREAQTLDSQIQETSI
UniProt O15525: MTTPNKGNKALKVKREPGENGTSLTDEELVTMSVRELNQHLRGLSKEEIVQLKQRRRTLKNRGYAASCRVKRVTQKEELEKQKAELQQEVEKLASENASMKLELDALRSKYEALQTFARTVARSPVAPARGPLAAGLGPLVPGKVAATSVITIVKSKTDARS
UniProt Q16659, whole entry, looked up: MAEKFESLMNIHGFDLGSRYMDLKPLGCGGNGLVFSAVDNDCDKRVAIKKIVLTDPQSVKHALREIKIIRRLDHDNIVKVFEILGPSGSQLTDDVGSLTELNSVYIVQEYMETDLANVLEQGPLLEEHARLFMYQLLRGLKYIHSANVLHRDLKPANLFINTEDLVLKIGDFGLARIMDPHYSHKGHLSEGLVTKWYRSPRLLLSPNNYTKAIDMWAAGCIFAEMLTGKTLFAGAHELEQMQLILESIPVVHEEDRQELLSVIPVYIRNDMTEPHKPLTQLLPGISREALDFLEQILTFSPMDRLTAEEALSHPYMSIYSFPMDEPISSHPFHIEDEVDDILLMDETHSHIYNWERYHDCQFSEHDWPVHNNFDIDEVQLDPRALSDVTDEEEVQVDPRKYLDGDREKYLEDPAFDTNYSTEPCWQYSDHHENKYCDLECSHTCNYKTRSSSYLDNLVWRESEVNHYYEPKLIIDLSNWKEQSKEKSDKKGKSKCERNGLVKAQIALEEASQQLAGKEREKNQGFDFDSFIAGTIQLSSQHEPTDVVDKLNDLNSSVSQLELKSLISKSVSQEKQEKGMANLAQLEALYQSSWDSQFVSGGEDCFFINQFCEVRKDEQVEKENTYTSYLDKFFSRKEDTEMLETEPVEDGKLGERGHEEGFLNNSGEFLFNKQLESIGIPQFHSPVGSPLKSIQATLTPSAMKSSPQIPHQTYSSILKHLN
UniProt P46821: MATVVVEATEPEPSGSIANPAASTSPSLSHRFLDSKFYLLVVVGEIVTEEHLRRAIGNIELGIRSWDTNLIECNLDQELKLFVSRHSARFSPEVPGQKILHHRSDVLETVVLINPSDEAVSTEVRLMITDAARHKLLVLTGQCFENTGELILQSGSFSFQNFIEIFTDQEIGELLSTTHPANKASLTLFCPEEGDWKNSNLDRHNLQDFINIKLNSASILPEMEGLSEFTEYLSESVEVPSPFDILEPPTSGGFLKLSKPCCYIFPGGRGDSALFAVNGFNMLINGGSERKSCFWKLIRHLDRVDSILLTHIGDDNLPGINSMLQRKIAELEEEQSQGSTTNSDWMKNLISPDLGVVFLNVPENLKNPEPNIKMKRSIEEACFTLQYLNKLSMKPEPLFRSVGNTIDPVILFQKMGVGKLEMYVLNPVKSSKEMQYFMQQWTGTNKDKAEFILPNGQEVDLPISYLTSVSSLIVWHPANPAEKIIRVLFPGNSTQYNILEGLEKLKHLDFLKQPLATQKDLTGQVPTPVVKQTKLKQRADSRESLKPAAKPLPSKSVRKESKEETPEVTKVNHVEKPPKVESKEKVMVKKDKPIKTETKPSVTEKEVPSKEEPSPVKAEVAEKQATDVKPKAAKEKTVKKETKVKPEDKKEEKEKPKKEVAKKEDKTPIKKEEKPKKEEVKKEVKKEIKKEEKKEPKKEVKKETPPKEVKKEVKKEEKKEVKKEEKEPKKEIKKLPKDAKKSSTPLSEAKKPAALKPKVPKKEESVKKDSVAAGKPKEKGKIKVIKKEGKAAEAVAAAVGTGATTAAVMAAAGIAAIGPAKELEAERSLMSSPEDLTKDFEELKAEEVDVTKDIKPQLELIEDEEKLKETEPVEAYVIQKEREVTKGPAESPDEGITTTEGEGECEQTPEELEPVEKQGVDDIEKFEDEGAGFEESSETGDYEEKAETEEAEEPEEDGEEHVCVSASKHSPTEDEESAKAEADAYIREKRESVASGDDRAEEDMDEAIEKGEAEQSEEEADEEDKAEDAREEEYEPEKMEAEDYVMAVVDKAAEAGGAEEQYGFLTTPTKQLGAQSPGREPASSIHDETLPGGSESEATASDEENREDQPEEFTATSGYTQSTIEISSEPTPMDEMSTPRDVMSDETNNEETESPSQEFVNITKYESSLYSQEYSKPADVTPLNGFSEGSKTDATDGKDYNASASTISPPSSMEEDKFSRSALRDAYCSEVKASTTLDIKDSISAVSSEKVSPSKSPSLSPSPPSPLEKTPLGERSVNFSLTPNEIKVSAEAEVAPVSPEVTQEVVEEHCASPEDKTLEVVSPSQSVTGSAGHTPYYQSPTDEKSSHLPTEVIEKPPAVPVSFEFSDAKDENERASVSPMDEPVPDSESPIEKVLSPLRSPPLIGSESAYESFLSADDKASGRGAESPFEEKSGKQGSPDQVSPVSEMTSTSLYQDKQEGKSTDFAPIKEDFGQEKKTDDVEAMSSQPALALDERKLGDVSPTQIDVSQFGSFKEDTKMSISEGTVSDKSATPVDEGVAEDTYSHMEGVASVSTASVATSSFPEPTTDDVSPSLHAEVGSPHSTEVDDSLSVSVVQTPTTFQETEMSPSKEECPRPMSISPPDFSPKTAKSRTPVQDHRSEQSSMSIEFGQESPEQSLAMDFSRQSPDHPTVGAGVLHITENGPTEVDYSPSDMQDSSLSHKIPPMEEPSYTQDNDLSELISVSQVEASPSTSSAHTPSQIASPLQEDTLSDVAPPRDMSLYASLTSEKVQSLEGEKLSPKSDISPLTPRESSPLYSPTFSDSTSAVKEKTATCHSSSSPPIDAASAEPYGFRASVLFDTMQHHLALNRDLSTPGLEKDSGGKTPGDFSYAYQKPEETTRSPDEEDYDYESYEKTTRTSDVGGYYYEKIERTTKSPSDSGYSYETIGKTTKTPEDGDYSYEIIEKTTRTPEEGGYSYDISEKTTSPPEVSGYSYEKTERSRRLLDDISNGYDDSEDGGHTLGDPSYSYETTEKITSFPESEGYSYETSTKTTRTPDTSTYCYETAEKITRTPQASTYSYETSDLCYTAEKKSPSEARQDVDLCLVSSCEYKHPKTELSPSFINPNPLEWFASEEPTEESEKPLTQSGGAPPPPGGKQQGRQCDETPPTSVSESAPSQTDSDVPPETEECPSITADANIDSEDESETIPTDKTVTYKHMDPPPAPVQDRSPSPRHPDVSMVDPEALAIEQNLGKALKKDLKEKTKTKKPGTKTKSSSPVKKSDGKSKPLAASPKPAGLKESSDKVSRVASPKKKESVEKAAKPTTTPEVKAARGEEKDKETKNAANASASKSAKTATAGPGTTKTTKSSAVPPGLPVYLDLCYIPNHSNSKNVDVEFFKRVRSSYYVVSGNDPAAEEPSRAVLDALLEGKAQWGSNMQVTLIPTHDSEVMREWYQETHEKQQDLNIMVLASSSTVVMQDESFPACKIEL

How the values were obtained:
Experiment in all cases: log2 fold change, soluble protein after heating vs DMSO (PISA); higher = thermal stabilisation; K562 lysate, 10 uM; active = over 0.2 and 3.5 SD of the protein, either way, in both replicates (recomputed)
[1] = compound: CS(=O)(=O)CCNCc1ccc(-c2ccc3ncnc(Nc4ccc(OCc5cccc(F)c5)c(Cl)c4)c3c2)o1 [lapatinib]
Method in brief: (§1)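 Log-two fold change in thermal stability relative to solvent controls is reported from duplicates. For each sample, crude K562 extract from dounce-homogenised pellets in PBS pH 7.4 with 1 mM MgCl2, at 1 mg/mL protein, was treated with 10 μM compound for 30 min. Aliquots heated for 3 min across 48°C-58°C were pooled, brought to 0.5% NP-40 at 4°C and cleared at 21,000xg for 90 min. The supernatant was quantified by TMTpro 16plex LC-MS/MS with channel sums equalised.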

[2] = compound: CS(=O)(=O)N1CCN(Cc2cc3nc(-c4cccc5[nH]ncc45)nc(N4CCOCC4)c3s2)CC1 [pictilisib]
Method in brief: as §1

[3] = compound: C[C@@H](Oc1cc(-c2cnn(C3CCNCC3)c2)cnc1N)c1c(Cl)ccc(F)c1Cl [crizotinib]
Method in brief: as §1

[4] = compound: C[C@H](C1=CC=C(C=C1)C(=O)NC2=C3C=CNC3=NC=C2)N
Method in brief: as §1

[5] = compound: C[C@H](Nc1ncnc2nc[nH]c12)c1cc2cccc(Cl)c2c(=O)n1-c1ccccc1 [duvelisib]
Method in brief: as §1

[6] = compound: Cc1cc(Nc2cc(CN3CCOCC3)c3nc(C)c(Cc4ccc(Cl)cc4F)n3n2)n[nH]1 [gandotinib]
Method in brief: as §1

[7] = compound: Cc1cc(Nc2cc(N3CCN(C)CC3)nc(Sc3ccc(NC(=O)C4CC4)cc3)n2)n[nH]1 [tozasertib]
Method in brief: as §1

[8] = compound: Cc1ccc(-n2nc(C(C)(C)C)cc2NC(=O)Nc2ccc(OCCN3CCOCC3)c3ccccc23)cc1 [doramapimod]
Method in brief: as §1

[9] = compound: Cc1ccc(NC(=O)c2ccc(CN3CC[C@H](N(C)C)C3)c(C(F)(F)F)c2)cc1Nc1nccc(-c2cncnc2)n1 [bafetinib]
Method in brief: as §1

[10] = compound: Cc1cccc(CC(=O)N2CCc3c2ccc(-c2cn(C)c4ncnc(N)c24)c3F)n1
Method in brief: as §1

[11] = compound: Cc1cn(-c2cc(NC(=O)c3ccc(C)c(Nc4nccc(-c5cccnc5)n4)c3)cc(C(F)(F)F)c2)cn1 [nilotinib]
Method in brief: as §1

[12] = compound: Cc1nc(Nc2n[nH]c3c2CN(C(=O)N[C@H](CN(C)C)c2ccccc2)C3(C)C)c2sccc2n1
Method in brief: as §1

[13] = compound: Cc1nc(Nc2ncc(C(=O)Nc3c(C)cccc3Cl)s2)cc(N2CCN(CCO)CC2)n1 [dasatinib]
Method in brief: as §1

[14] = compound: Cc1ncc(-c2ccnc(Nc3ccc(S(C)(=O)=O)cc3)n2)n1C(C)C
Method in brief: as §1

[15] = compound: Cn1cc(-c2ccc3c(c2)CCN3C(=O)Cc2cccc(C(F)(F)F)c2)c2c(N)ncnc21
Method in brief: as §1

[16] = compound: Cn1cc(CNCC2CCN(c3ncc(C(=O)NO)cn3)CC2)c2ccccc21 [quisinostat]
Method in brief: as §1

[17] = compound: Cn1cncc1[C@@](N)(c1ccc(Cl)cc1)c1ccc2c(c1)c(-c1cccc(Cl)c1)cc(=O)n2C [tipifarnib]
Method in brief: as §1

[18] = compound: NC(=O)Nc1cc(-c2cccc(F)c2)sc1C(=O)N[C@H]1CCCNC1
Method in brief: as §1

[19] = compound: NC(=O)c1cnc(N[C@@H]2CCCC[C@@H]2N)nc1Nc1cccc(-n2nccn2)c1
Method in brief: as §1

[20] = compound: NC1(c2ccc(-c3nc4ccn5c(=O)[nH]nc5c4cc3-c3ccccc3)cc2)CCC1
Method in brief: as §1

Measured: log2 fold change

MAP2K3 isoform 3 (UniProt P46734)
inactive: [1] -0.014 | [2] -0.102 | [3] -0.043 | [4] -0.021 | [5] 0.124 | [6] 0.038 | [7] 0.017 | [8] -0.047 | [9] -0.012 | [10] -0.035 | [11] -0.001 | [12] -0.004 | [13] -0.021 | [14] 0.021 | [15] 0.059 | [16] -0.055 | [17] -0.093 | [18] 0.034 | [19] -0.03 | [20] 0.131

MAPK9 (UniProt P45984)
inactive: [1] 0.001 | [2] 0.088 | [3] -0.021 | [4] 0.026 | [5] 0.006 | [6] 0.035 | [7] 0.033 | [8] 0.192 | [9] -0.011 | [10] -0.15 | [11] -0.015 | [12] 0.025 | [13] -0.005 | [14] 0.174 | [15] 0.118 | [16] 0.004 | [17] -0.028 | [18] -0.005 | [19] 0.009 | [20] 0.012

MAP1S (UniProt Q66K74)
inactive: [1] 0.009 | [2] -0.06 | [3] -0.016 | [4] -0.021 | [5] 0.004 | [6] -0.065 | [7] 0.035 | [8] 0.003 | [9] -0.03 | [10] 0.049 | [11] 0.007 | [12] -0.022 | [13] -0.007 | [14] -0.009 | [15] 0.009 | [16] -0.006 | [17] 0.02 | [18] 0.026 | [19] 0 | [20] 0

MAGT1 (UniProt Q9H0U3)
inactive: [1] -0.012 | [2] 0.005 | [3] -0.04 | [4] -0.022 | [5] -0.033 | [6] 0.052 | [7] -0.026 | [8] 0.044 | [9] -0.059 | [10] 0.038 | [11] -0.006 | [12] -0.002 | [13] 0.009 | [14] -0.001 | [15] -0.007 | [16] -0.075 | [17] 0 | [18] -0.012 | [19] -0.003 | [20] -0.015

LYN (UniProt P07948)
active: [9] 0.763 | [18] 0.842
inactive: [1] -0.184 | [2] -0.036 | [3] 0.093 | [4] -0.079 | [5] -0.042 | [6] 0.551 | [7] 0.11 | [8] 0.026 | [10] -0.005 | [11] 0.158 | [12] 0.218 | [13] 0.457 | [14] -0.026 | [15] 0.095 | [16] -0.125 | [17] -0.154 | [19] 0.084 | [20] -0.037

LYRM7 (UniProt Q5U5X0)
inactive: [1] 0.018 | [2] -0.059 | [3] 0.018 | [4] -0.018 | [5] -0.066 | [6] 0.033 | [7] -0.007 | [8] -0.024 | [9] -0.013 | [10] -0.027 | [11] -0.02 | [12] -0.03 | [13] 0.004 | [14] 0.079 | [15] 0.011 | [16] 0.025 | [17] 0.012 | [18] 0.021 | [19] 0.009 | [20] 0.047

MAP7D3 (UniProt Q8IWC1)
inactive: [1] 0.033 | [2] 0.01 | [3] -0.006 | [4] -0.055 | [5] -0.068 | [6] 0.021 | [7] 0.066 | [8] 0.065 | [9] -0.128 | [10] 0.06 | [11] -0.012 | [12] -0.01 | [13] 0.03 | [14] -0.037 | [15] 0.029 | [16] -0.101 | [17] 0.014 | [18] 0.003 | [19] -0.016 | [20] 0.005

MAP4 (UniProt P27816)
inactive: [1] -0.002 | [2] 0.012 | [3] 0.013 | [4] -0.032 | [5] -0.004 | [6] 0.058 | [7] -0.014 | [8] -0.044 | [9] 0.018 | [10] -0.007 | [11] -0.002 | [12] -0.001 | [13] 0.013 | [14] 0.016 | [15] -0.036 | [16] -0.001 | [17] 0.012 | [18] -0.034 | [19] -0.011 | [20] -0.003

MAFG (UniProt O15525)
inactive: [1] 0.031 | [2] 0.025 | [3] 0.039 | [4] 0.028 | [5] 0 | [6] 0.045 | [7] 0.129 | [8] 0.005 | [9] -0.194 | [10] 0.044 | [11] -0.116 | [12] -0.01 | [13] -0.099 | [14] 0.114 | [15] -0.057 | [16] 0 | [17] -0.156 | [18] 0.016 | [19] 0.016 | [20] 0.03

MAPK6 (UniProt Q16659)
inactive: [1] -0.038 | [2] -0.021 | [3] 0.025 | [4] 0.075 | [5] -0.008 | [6] -0.042 | [7] -0.024 | [8] -0.006 | [9] -0.028 | [10] -0.045 | [11] -0.065 | [12] 0.085 | [13] 0.032 | [14] 0.05 | [15] 0.039 | [16] -0.003 | [17] -0.081 | [18] 0.055 | [19] 0.017 | [20] -0.028

LYSMD2 (UniProt Q8IV50)
inactive: [1] -0.038 | [2] -0.039 | [3] 0.055 | [4] 0 | [5] -0.009 | [6] 0.002 | [7] -0.027 | [8] 0.017 | [9] 0.051 | [10] -0.062 | [11] -0.035 | [12] 0.021 | [13] 0.025 | [14] 0 | [15] 0.033 | [16] 0.012 | [17] -0.064 | [18] 0.003 | [19] -0.021 | [20] 0.05

MAP7 (UniProt Q14244)
inactive: [1] 0.018 | [2] -0.002 | [3] 0.07 | [4] -0.045 | [5] -0.064 | [6] 0.126 | [7] -0.03 | [8] 0.11 | [9] 0 | [10] 0.022 | [11] 0.052 | [12] -0.097 | [13] 0.058 | [14] -0.09 | [15] 0.023 | [16] -0.002 | [17] -0.038 | [18] 0.024 | [19] -0.027 | [20] -0.168

MAP1LC3B2 (UniProt A6NCE7)
inactive: [1] -0.029 | [2] -0.044 | [3] 0.06 | [4] -0.03 | [5] 0.032 | [6] 0.035 | [7] 0.014 | [8] -0.056 | [9] -0.005 | [10] 0.022 | [11] 0.01 | [12] -0.047 | [13] 0.009 | [14] 0.022 | [15] 0.043 | [16] 0.001 | [17] 0.046 | [18] 0.012 | [19] -0.009 | [20] 0.049

MAP1B (UniProt P46821)
inactive: [1] 0.001 | [2] 0.009 | [3] 0 | [4] 0.033 | [5] 0.016 | [6] 0.011 | [7] 0.005 | [8] -0.018 | [9] -0.015 | [10] -0.047 | [11] -0.007 | [12] 0.023 | [13] 0.018 | [14] 0.012 | [15] 0.009 | [16] -0.033 | [17] 0.002 | [18] 0.005 | [19] -0.013 | [20] -0.001

MACF1 isoform 3 (UniProt Q9UPN3)
inactive: [1] 0.019 | [2] -0.017 | [3] -0.004 | [4] -0.042 | [5] -0.004 | [6] -0.009 | [7] 0.005 | [8] 0.008 | [9] -0.025 | [10] 0.045 | [11] -0.009 | [12] 0.006 | [13] -0.003 | [14] -0.002 | [15] -0.002 | [16] -0.01 | [17] 0.012 | [18] 0.02 | [19] -0.002 | [20] -0.003

Retrieved one by one from the list above, 2 records:
MAP1LC3B2 (UniProt A6NCE7)
inactive: [1] -0.029 | [2] -0.044 | [3] 0.06 | [4] -0.03 | [5] 0.032 | [6] 0.035 | [7] 0.014 | [8] -0.056 | [9] -0.005 | [10] 0.022 | [11] 0.01 | [12] -0.047 | [13] 0.009 | [14] 0.022 | [15] 0.043 | [16] 0.001 | [17] 0.046 | [18] 0.012 | [19] -0.009 | [20] 0.049

MACF1 isoform 3 (UniProt Q9UPN3)
inactive: [1] 0.019 | [2] -0.017 | [3] -0.004 | [4] -0.042 | [5] -0.004 | [6] -0.009 | [7] 0.005 | [8] 0.008 | [9] -0.025 | [10] 0.045 | [11] -0.009 | [12] 0.006 | [13] -0.003 | [14] -0.002 | [15] -0.002 | [16] -0.01 | [17] 0.012 | [18] 0.02 | [19] -0.002 | [20] -0.003
